This is an account of results in PMC9366055.

Sequences of proteins named here, by UniProt entry; tags and fusion partners are left off.
UniProt Q9WWF7: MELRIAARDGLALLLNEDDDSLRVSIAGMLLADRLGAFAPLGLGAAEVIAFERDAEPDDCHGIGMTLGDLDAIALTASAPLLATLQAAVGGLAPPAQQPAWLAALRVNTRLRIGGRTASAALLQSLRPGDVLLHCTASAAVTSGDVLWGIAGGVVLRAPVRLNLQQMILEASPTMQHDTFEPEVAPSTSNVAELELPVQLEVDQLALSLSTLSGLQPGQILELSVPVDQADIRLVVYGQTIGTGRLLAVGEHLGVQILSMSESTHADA
UniProt Q9WWF9: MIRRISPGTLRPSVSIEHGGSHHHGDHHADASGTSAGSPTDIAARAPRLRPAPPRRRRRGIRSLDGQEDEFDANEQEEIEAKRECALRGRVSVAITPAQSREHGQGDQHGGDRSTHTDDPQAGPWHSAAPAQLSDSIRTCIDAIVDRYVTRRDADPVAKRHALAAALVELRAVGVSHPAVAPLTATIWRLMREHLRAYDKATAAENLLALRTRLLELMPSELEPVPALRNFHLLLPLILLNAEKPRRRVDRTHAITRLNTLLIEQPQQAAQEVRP

Assay [1] concerns the target GST-HrcQ (X. euvesicatoria) (UniProt Q9WWF7). In words: pull-down; GST or GST fusion from E. coli BL21 (DE3) lysate immobilised on glutathione sepharose, washed, incubated with a bacterial lysate containing the c-Myc-tagged partner for 2 h at 4°C; eluted with Laemmli buffer; immunoblot with c-Myc- and GST-specific antibodies; only the target purified. Background: A western blot detects proteins with antibodies after separation by electrophoresis.

Assay [2] concerns the target GST-HpaA (X. euvesicatoria) (UniProt Q9WWF9). The description is as above.

No constants are given. Whether binding was seen depends on the method and setting. In cells and extracts the contact can be indirect. Some results given as binding are weak or reduced against the parent protein; the word gives no strength.

In the case of HpaA-c-Myc (from UniProt Q9WWF9 1-275), the binding entry in assay [1] was “binds”.

On to HrcQ-c-Myc (from UniProt Q9WWF7 1-268), for which the binding entry in assay [2] is “binds”.
